Measured values published in PMC8945937.
The exact form of at least one protein or probe is not confirmed. A weaker result is weaker than the reference pair of the same experiment.

Sequences of proteins named here, by UniProt entry; tags and fusion partners are left off. A change or cut given only in a name is not applied to a line headed by its entry.
UniProt Q00987: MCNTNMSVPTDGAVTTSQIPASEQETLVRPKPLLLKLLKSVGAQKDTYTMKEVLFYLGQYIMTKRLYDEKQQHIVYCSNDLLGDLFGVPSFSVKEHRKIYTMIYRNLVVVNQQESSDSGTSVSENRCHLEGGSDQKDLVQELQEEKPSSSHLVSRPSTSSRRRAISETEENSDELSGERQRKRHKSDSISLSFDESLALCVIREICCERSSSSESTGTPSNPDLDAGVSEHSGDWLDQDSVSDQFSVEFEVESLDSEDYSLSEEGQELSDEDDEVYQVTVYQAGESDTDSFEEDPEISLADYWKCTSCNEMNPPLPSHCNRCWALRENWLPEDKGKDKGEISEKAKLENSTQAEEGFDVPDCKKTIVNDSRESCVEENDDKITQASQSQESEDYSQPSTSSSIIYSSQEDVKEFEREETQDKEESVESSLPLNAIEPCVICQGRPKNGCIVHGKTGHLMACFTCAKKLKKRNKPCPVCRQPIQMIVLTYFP

Biological target: MDM2 (purified endogenous / rhMDM2) (human) (UniProt Q00987)
Assay: EMSA with UV cross-linking, immunoblot
Details: biotinylated UTP (pull-down); unlabeled in gel shift; native protein; label: biotin-UTP internal in pull-down; probe letters rebuilt from the primers and the genome; part of a longer molecule

Sequence: CCUCCCAUAUUCUCCCGUCUAGCACCUUUGAUUUCUCCCAAACCCGGCAGCCCGAGACUGUUGCAAACCGGCGCCACAGGGCGCAAAGGGGAUUUGUCUCUUCUGAAACCUGGCUGAGAAAUUGGGAACUCCGUGUGGGAGGCGUGGGGGUGGGACGGUGGGGUACAGACUGGCAGAGAGCAGGCAACCUCCCUCUCGCCCUAGCCCAGCUCUGGAACAGGCAGACACA [c-Myc 5'UTR IRES RNA probe (probe 2)]
- binding result: binds more weakly
